According to PMC3236736, “Jamb and Jamc Are Essential for Vertebrate Myocyte Fusion” (PLoS Biology, 2011):
Results are given in words; binding and its absence hold for the method and conditions named. Some results given as binding are weak or reduced against the parent protein; the word gives no strength. Tags and fused reporters may be left off the sequences shown.

Experiments:
[1] = molecular target: Jamc extracellular domain fused to rat Cd4 domains 3 and 4 (Jamc-Cd4d3+4-6H; Jamc-Cd4d3+4-bio) (zebrafish) (UniProt A3KPA0); test: SPR; dissociation phase averaged over three concentrations of purified Jamc-Cd4d3+4-6H or Jamb-Cd4d3+4-6H analyte, fitted to a first-order decay; homophilic and heterophilic interactions; both purified
[2] = molecular target: Jamb extracellular domain fused to rat Cd4 domains 3 and 4 (Jamb-Cd4d3+4-6H; Jamb-Cd4d3+4-bio) (zebrafish); test: as above

Row | binding [1] | binding [2] | Binder
1 | binds weakly | – | Jamc extracellular domain fused to rat Cd4 domains 3 and 4 (Jamc-Cd4d3+4-6H; Jamc-Cd4d3+4-bio) (domain or fragment, zebrafish, UniProt A3KPA0 24-235, looked up, Jamc (official symbol jam3b), zebrafish, Entrez Gene 569217; Two forms with the same ectodomain were made; They are written as one molecule because the protein stood against itself in the homophilic test; also called Jam3b; zebrafish JAM-C orthologue; source: expressed as a soluble fusion protein, purified; not shown: rat Cd4 domains 3 and 4, C-terminal, kept; His6, C-terminal, kept) VLLKSTNSKPWVNEFESIELSCMIESITTTKPRIEWKKIKNGDPSYVYFDNQISGDLERRAKIREPATLVILNATRSDSADYRCEVTAPNDQKSFDEILISLTVRVKPVVPRCSVPKSIPVGKPAELHCLEDEGYPKSQYQWFRNKEEIPLDPKSSPKFFNSTYTLDGEMGTLKFSAVRKEDAGEYYCRAKNEAGISECGPQMMEVYDINIA
2 | – | binds weakly | Jamb extracellular domain fused to rat Cd4 domains 3 and 4 (Jamb-Cd4d3+4-6H; Jamb-Cd4d3+4-bio) (domain or fragment, zebrafish, UniProt A0A0R4IGV4 19-226, looked up, Jamb (official symbol jam2a), zebrafish, Entrez Gene 100005261; Two forms with the same ectodomain were made; They are written as one molecule because the protein stood against itself in the homophilic test; also called Jam2a; zebrafish JAM-B orthologue; source: expressed as a soluble fusion protein, purified; not shown: rat Cd4 domains 3 and 4, C-terminal, kept; His6, C-terminal, kept) VTVSSRNPKVEVHEFSDAELSCEFKTEKDTNPRIEWKRKDKEKDVSFVYYGERFVGPFQDRADIEGATVRLRRVTQADAGEYRCEVSAPSDSISLGETNVTLRVLVPPQTPSCDVPSSALTGSQVELRCRDRHSIPPAVYTWYKDNRALPIRHPNATYTVNEFTGVLIPQSHYNPGTVCQHCMYHPNYHIPNTQLTTTFQTHDLNVAA
